# Literature values, collected in patent US20120309705A1, “NOVEL 3'-DEOXY-3'-METHYLIDENE-BETA-L-NUCLEOSIDES” (priority 2009, published 2012).
# For at least one compound, name, drawing or mass did not settle the structure.
# Assays:
# [1] = target: HBV polymerase mutation of rtM204I (Hepatitis B virus genotype D subtype ayw, UniProt P03156, M539I); settings: rtM204I (ATG to ATA); cited from earlier work
# [2] = target: HBV polymerase mutation of rtM204V (Hepatitis B virus genotype D subtype ayw, UniProt P03156, M539V); settings: rtM204V (ATG to GTG); cited from earlier work
# [3] = target: double mutants containing rtL180M and rtM204V (Hepatitis B virus genotype D subtype ayw, UniProt P03156, L515M/M539V); settings: cited from earlier work
# rtL180M mutation = rtL180M mutation (Hepatitis B virus genotype D subtype ayw, UniProt P03156, L515M); settings: cited from earlier work
smiles,measurement,setting,value
Nc1ccn([C@@H]2CS[C@H](CO)O2)c(=O)n1 [lamivudine],reduction of susceptibility,[1],550 folds
same,reduction of susceptibility,[2],153 folds
same,activity loss,[3],about thousand
same,loss of sensitivity,rtL180M mutation,about 18 fold
